Laboratory results published in PubChem BioAssay AID2685 (National Center for Advancing Translational Sciences (NCATS), 2010).
This is one part of the list. These are further read-outs of the screen, such as a control signal, another cell line or another target. No call is given for them. Most of these compounds were active or inconclusive in the main read-out, so they are no random draw. Words in brackets tell the shape of the fitted curve; partial curves, single points and poor fits give uncertain potencies.

Assay: qHTS Assay for Lipid Storage Modulators in Drosophila S3 Cells;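 as to cell number change: cells counted by Cell Tracker Red CMTPX staining in the red channel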
Settings: BODIPY lipid droplet fluorescence, 18-24 h; for cell number change: measured here: cell count max response, cells fed with added oleic acid
In short: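 Drosophila S3 cells loaded with oleic acid (400 uM, as added) and compounds at several concentrations; lipid droplets imaged by 488-nm laser-scanning cytometry, 500–530 nm intensity and object ratio to cell channel. Percent activity normalized to 20 uM Triacsin C.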

[1] = measured here: cell number channel AC50, cells fed with added oleic acid
[2] = measured here: lipid fluorescence (Fed channel) AC50, cells fed with added oleic acid

Row | Structure (SMILES) | cell number change [%] | AC50 [1] | AC50 [2]
1 | CN(C)CCNC(=S)Nc1ccc(Br)cc1 | 33.3 | 10.3 µM [rising, single point] | 23.1 µM [rising, single point]
2 | COc1ccc(-c2nc(C#N)c(NCCCn3ccnc3)o2)cc1OC | 46.3 | 2.59 µM [rising, full curve] | 4.61 µM [rising, partial curve]
3 | COc1ccc(N2CCC(CNC(=O)Nc3ccc(Cl)cc3)C2)cc1 (stereo not drawn) | 53.3 | 0.0206 µM [rising, full curve, poor fit] | 0.058 µM [rising, full curve, poor fit]
4 | Cc1ccc(CSc2nc3c(c(N(C)C)n2)CCCC3)cc1 | – | 2.06 µM [rising, partial curve, poor fit] | 6.51 µM [rising, single point]
5 | COc1ccc(C(C(=O)NCCC(C)C)N(CCO)C(=O)c2snc(C(N)=O)c2N)cc1OC (stereo not drawn) | -15.8 | – | –
6 | COC(=O)C(Cc1ccc(O)cc1)NC(=O)C(C)NC(=O)c1ccc(C(C)(C)C)cc1 (stereo not drawn) | -1.8 | – | 29.1 µM [falling, single point]
7 | CCOc1cc(CO)c(Br)cc1OCC(=O)O | -0.443 | – | 29.1 µM [falling, single point]
8 | Cn1c(SCC(=O)Nc2ccc(F)cc2)nc2c([nH]c3ccccc32)c1=O | 4.14 | – | 0.116 µM [rising, full curve]
9 | NC(=O)c1sc2nnc(-c3ccccc3)c(-c3ccccc3)c2c1N | 36.1 | 0.411 µM [rising, full curve, poor fit] | 0.517 µM [rising, full curve]
10 | Cn1ncc(Cl)c(Oc2ccc(Cl)cc2)c1=O | 43.7 | 29.1 µM [rising, single point] | 13 µM [falling, partial curve, poor fit]
11 | O=C1Nc2ccc(F)cc2C12Nc1ccccc1-c1nnc(SCc3ccccc3Cl)nc1O2 (stereo not drawn) | -12.2 | – | –
12 | COC(=O)c1ccc(N2CCN(S(=O)(=O)c3ccc(C)cc3)CC2)c([N+](=O)[O-])c1 | 84 | 6.51 µM [falling, single point] | 6.51 µM [falling, single point]
13 | O=C(N=Nc1ccc(NOC(=O)c2ccccc2Br)cc1)c1ccccc1O | – | 1.3 µM [rising, full curve] | 0.731 µM [rising, partial curve, poor fit]
14 | O=C(NCc1ccccc1)c1ccc(F)c(S(=O)(=O)N2CCOCC2)c1 | -3.53 | 0.184 µM [falling, full curve, poor fit] | –
15 | CCOc1ccc2oc(C(=O)Nc3ccc4c(c3)OCO4)c(C)c2c1 | 18.4 | – | –
16 | Cc1ccc(C(C)C)c(OCC(=O)Nn2c(=O)[nH]c3ccccc3c2=O)c1 | -56.7 | 29.1 µM [falling, single point] | –
17 | COCCN=c1scc(-c2cccs2)n1/N=C/c1ccc(O)c(O)c1O | -21.1 | – | 14.6 µM [falling, single point]
18 | CN1/C(=C\C=C2/SC(=S)N(CC(=O)O)C2=O)C(C)(C)c2ccccc21 | -98 | 7.31 µM [falling, partial curve] | 2.31 µM [falling, partial curve]
19 | CC(C)CN(C(=O)COC(=O)COc1ccc2ccccc2c1)c1c(N)n(Cc2ccccc2)c(=O)[nH]c1=O | -73.5 | 23.1 µM [falling, single point] | –
20 | CCC(C)c1ccc(NC(=S)N2CCN(S(C)(=O)=O)CC2)cc1 (stereo not drawn) | 7.54 | – | 6.51 µM [rising, single point]

Rewritten in markdown: part of the list above.

| Row | Structure (SMILES) | cell number change [%] | AC50 [1] | AC50 [2] |
| --- | --- | --- | --- | --- |
| 18 | CN1/C(=C\C=C2/SC(=S)N(CC(=O)O)C2=O)C(C)(C)c2ccccc21 | -98 | 7.31 µM [falling, partial curve] | 2.31 µM [falling, partial curve] |
| 19 | CC(C)CN(C(=O)COC(=O)COc1ccc2ccccc2c1)c1c(N)n(Cc2ccccc2)c(=O)[nH]c1=O | -73.5 | 23.1 µM [falling, single point] | – |
| 20 | CCC(C)c1ccc(NC(=S)N2CCN(S(C)(=O)=O)CC2)cc1 (stereo not drawn) | 7.54 | – | 6.51 µM [rising, single point] |

Later entries:

Row | Structure (SMILES) | cell number change [%] | AC50 [1] | AC50 [2]
21 | COc1cccc(NC(=O)CN(C)C(=O)c2cccc(NS(=O)(=O)c3ccccc3)c2)c1 | -0.777 | – | 6.51 µM [falling, single point]
22 | COc1ccc(NC(=O)N2CCN(S(C)(=O)=O)CC2)c(OC)c1 | -35.3 | 29.1 µM [falling, single point] | 29.1 µM [falling, single point]
23 | Cc1cc(NC(=O)CSc2cn(CCNC(=O)c3ccc(F)cc3)c3ccccc23)no1 | -31.1 | 8.2 µM [falling, partial curve, poor fit] | 0.146 µM [falling, full curve, poor fit]
24 | CC(C)N1CCN(c2ccncc2S(=O)(=O)N2CCOCC2)CC1 | -29.5 | 3.66 µM [falling, full curve, poor fit] | 29.1 µM [falling, single point]
25 | Oc1ccc(N=Cc2c(O)ccc3ccccc23)cc1 | -41.2 | 29.1 µM [falling, single point] | –
26 | COc1ccc(CCNC(=O)C(=O)NCC2OCCN2S(=O)(=O)c2ccc(C)cc2)cc1 (stereo not drawn) | 10.7 | – | 6.51 µM [rising, single point]
27 | O=C(Cn1ccccc1=O)NCc1ccc(F)cc1 | 17.5 | – | –
28 | CCSc1ncnc2c(C#N)c3n(c12)CCCCC3 | -5.92 | – | 6.51 µM [rising, single point]
29 | Cc1ccc(N(C(=O)Cn2nnc(-c3ccc(F)cc3)n2)C(CC(C)C)C(=O)NCC2CCCO2)cc1 (stereo not drawn) | -10.6 | – | –
30 | Cc1ccc(-c2ccc(C#N)c(=O)n2CC(=O)N(C)C)cc1 | -14.6 | – | 0.82 µM [rising, full curve]
31 | COc1ccc(S(=O)(=O)N(C)C2CCS(=O)(=O)C2)cc1OC (stereo not drawn) | 2.97 | – | –
32 | CC(O)C(=O)N/N=C/c1ccccc1C(=O)O (stereo not drawn) | -15.2 | – | 0.00517 µM [falling, full curve, poor fit]
33 | COc1ccc(/C=C/c2nc3ccccc3n2Cc2ccc(OC)c(OC)c2)cc1 | -41.2 | 0.0058 µM [falling, full curve, poor fit] | –
34 | Cc1ccccc1N=C1NC(=O)/C(=C/c2cccn2C)S1 | -8.02 | – | 6.51 µM [rising, single point]
35 | CCC(C)NC(=S)N1CCN(C)CC1 (stereo not drawn) | 14.7 | 0.92 µM [falling, full curve] | 0.92 µM [falling, full curve]
36 | COc1cc(CCC(=O)Nc2ccc(S(=O)(=O)NC3=NCCCCC3)cc2)cc(OC)c1OC | 39.7 | 8.2 µM [rising, partial curve, poor fit] | 8.2 µM [rising, single point]
37 | Cc1cccn2c(=O)c(/C=C(\C#N)C(N)=O)c(N3CCN(c4cccc(Cl)c4)CC3)nc12 | 18 | – | 29.1 µM [falling, single point]
38 | COc1ccc(-n2nnnc2SCC(=O)NC(=O)Nc2ccc3c(c2)OCCO3)cc1 | 41.5 | – | 6.51 µM [falling, single point]
39 | COc1ccc(N=Cc2ccc[nH]2)cc1 | 12.4 | – | 0.231 µM [rising, full curve]
40 | CCOC(=O)c1c(C)c(C(=O)NCCN2CCOCC2)c(C)n1CC | -4.7 | – | 0.13 µM [falling, full curve, poor fit]

Row | Structure (SMILES) | cell number change [%] | AC50 [1] | AC50 [2]
41 | CSc1ccccc1-c1nnc(-c2ccc(C)cc2)o1 | 4.89 | – | 6.51 µM [falling, single point]
42 | Cc1ccc(NC(=O)c2ccc([N+](=O)[O-])o2)c(C)c1 | -15.1 | – | –
43 | CC(C)OCCCn1c(=O)c2ccccc2n2c(CCC(=O)NCc3ccccn3)nnc12 | -53.4 | 16.4 µM [falling, single point] | 0.291 µM [falling, full curve]
44 | O=C(NC1CCCC1)C(c1cccnc1)N(C(=O)c1csnn1)c1ccccc1Cl (stereo not drawn) | 1.35 | – | –
45 | COCCn1c(=NC(=O)c2cc3ccccc3oc2=O)sc2cc(S(N)(=O)=O)ccc21 | – | 6.51 µM [rising, single point] | 0.326 µM [rising, full curve, poor fit]
46 | Cc1cc(=O)c2ccccc2n1CC(=O)NCc1ccccc1 | -6.43 | – | –
47 | O=C(Nc1ccc(N2CCCCCC2)cc1)c1ccccc1Cl | 85.5 | 6.51 µM [falling, single point] | –
48 | CCOC(=O)C1(Cc2cccc(OC)c2)CCN(Cc2ccon2)CC1 | -0.468 | – | –
49 | S=C(NCCCN1CCOCC1)NCCCN1CCOCC1 | -0.314 | – | 9.2 µM [falling, partial curve]
50 | Cc1ccc(-c2onc(C)c2C)cc1S(=O)(=O)N1CC(C)Oc2ccccc21 (stereo not drawn) | -46.5 | 2.06 µM [falling, full curve] | 20.6 µM [falling, partial curve]
51 | Cc1csc(N(C)C(=O)CSc2nnc(COc3cccc4ccccc34)o2)n1 | -26.5 | – | –
52 | Cc1ccc(N(CC(N)=O)C2SC(=O)N(Cc3cccc(C(=O)O)c3)C2=O)cc1 (stereo not drawn) | -3.57 | – | –
53 | O=C(O)CCCn1cc(NC(=O)c2ccc(Br)o2)cn1 | -13.6 | 1.12 µM [falling, full curve, poor fit] | 3.55 µM [falling, partial curve]
54 | O=C(CSc1nc2scc(-c3ccccc3)c2c(=O)[nH]1)Nc1ccccc1 | -25.4 | – | –
55 | COc1ccc(OC)c(Nc2nnc(C)c(=O)[nH]2)c1 | – | 0.58 µM [rising, single point] | 29.1 µM [rising, single point]
56 | Cc1oc(-c2ccccc2Cl)nc1CS(=O)(=O)CC(=O)NC1CCCC1 | 4.9 | – | 20.6 µM [falling, single point]
57 | O=[N+]([O-])c1cc(S(=O)(=O)N2CCCC2)ccc1N/N=C/c1ccncc1 | -16.8 | – | 1.84 µM [falling, partial curve, poor fit]
58 | CCNc1ccc([N+](=O)[O-])cc1 | -13.3 | – | 0.517 µM [falling, full curve]
